Results reported in publication PMC10512269.
Where two headings read alike, the source gives them in different places. Results are given in words; binding and its absence hold for the method and conditions named. Binding seen in cells or lysates may run through a third protein. A result given as binding can be weak or reduced; the word gives no strength. For some assays here: Sequences can lack the tags named with a protein.

Protein sequences, listed by entry. Tags and fused reporters are not part of them. Lines headed by an entry give the natural chain unless they say otherwise; changes in a name come on top.
UniProt Q4WLV8: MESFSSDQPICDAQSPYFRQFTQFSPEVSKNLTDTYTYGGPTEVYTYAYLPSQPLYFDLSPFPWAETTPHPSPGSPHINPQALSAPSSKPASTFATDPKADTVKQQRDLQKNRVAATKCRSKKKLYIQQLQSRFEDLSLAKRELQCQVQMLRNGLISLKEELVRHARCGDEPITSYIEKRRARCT
UniProt Q4WR67: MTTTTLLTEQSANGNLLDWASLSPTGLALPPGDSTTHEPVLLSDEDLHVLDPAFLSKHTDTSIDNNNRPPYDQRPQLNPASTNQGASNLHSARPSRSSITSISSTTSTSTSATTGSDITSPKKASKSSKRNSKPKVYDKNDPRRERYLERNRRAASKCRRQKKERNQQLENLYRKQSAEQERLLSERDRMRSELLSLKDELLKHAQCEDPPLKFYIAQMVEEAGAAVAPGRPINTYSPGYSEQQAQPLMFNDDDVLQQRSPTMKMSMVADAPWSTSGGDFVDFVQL

T1: AtfB:GFP (Aspergillus fumigatus) (UniProt Q4WVQ7)
T1 sequence: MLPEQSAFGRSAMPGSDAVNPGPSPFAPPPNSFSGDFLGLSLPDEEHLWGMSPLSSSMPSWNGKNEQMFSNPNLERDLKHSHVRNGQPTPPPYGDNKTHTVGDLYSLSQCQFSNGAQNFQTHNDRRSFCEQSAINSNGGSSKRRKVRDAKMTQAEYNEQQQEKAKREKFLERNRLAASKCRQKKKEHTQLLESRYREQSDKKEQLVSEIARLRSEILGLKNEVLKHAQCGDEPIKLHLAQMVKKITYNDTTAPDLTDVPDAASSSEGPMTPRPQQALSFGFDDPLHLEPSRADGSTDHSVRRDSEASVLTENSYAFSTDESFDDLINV

T2: AtfA:GFP (Aspergillus fumigatus) (UniProt Q4WY05)
T2 sequence: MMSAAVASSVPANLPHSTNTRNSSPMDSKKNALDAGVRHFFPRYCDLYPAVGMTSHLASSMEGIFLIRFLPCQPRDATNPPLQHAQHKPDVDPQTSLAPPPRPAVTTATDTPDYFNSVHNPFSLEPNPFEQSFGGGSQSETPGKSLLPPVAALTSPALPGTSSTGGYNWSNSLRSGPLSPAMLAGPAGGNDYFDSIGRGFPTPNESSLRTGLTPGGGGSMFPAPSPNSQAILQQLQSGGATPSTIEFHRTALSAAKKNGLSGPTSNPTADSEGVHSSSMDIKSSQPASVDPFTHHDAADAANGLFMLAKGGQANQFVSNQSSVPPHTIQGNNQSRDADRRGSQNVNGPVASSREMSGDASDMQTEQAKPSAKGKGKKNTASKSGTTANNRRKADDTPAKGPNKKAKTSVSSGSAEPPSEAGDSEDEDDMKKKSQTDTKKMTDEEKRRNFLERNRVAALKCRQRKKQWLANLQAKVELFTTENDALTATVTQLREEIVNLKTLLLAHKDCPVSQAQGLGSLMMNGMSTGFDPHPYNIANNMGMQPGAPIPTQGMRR


Legend:
Test in all cases: co-IP; GFP-Trap resin with protein extracts of A. fumigatus mycelia (grown 16 h in liquid YG; untreated, 1.2 M sorbitol 10 min, or Congo Red 300 ug/ml 10 min); 4 h at 4°C, washed three times in B250 buffer; Western blot with anti-GFP and anti-HA
[1] = molecular target: T1, AtfB:GFP (Aspergillus fumigatus)
[2] = molecular target: AtfD:GFP (Aspergillus fumigatus) (UniProt Q4WLV8)
[3] = molecular target: T2, AtfA:GFP (Aspergillus fumigatus)
[4] = molecular target: AtfD:GFP (Aspergillus fumigatus) (UniProt Q4WLV8); remark: listed apart in the source

Molecule	binding [1]	binding [2]	binding [3]	binding [4]
AtfC:3xHA (from UniProt Q4WR67)	binds	binds	binds	–
AtfB:3xHA (protein, UniProt Q4WVQ7 1-328) MLPEQSAFGRSAMPGSDAVNPGPSPFAPPPNSFSGDFLGLSLPDEEHLWGMSPLSSSMPSWNGKNEQMFSNPNLERDLKHSHVRNGQPTPPPYGDNKTHTVGDLYSLSQCQFSNGAQNFQTHNDRRSFCEQSAINSNGGSSKRRKVRDAKMTQAEYNEQQQEKAKREKFLERNRLAASKCRQKKKEHTQLLESRYREQSDKKEQLVSEIARLRSEILGLKNEVLKHAQCGDEPIKLHLAQMVKKITYNDTTAPDLTDVPDAASSSEGPMTPRPQQALSFGFDDPLHLEPSRADGSTDHSVRRDSEASVLTENSYAFSTDESFDDLINV	–	–	–	binds
AtfA:3xHA (protein, UniProt Q4WY05 1-555) MMSAAVASSVPANLPHSTNTRNSSPMDSKKNALDAGVRHFFPRYCDLYPAVGMTSHLASSMEGIFLIRFLPCQPRDATNPPLQHAQHKPDVDPQTSLAPPPRPAVTTATDTPDYFNSVHNPFSLEPNPFEQSFGGGSQSETPGKSLLPPVAALTSPALPGTSSTGGYNWSNSLRSGPLSPAMLAGPAGGNDYFDSIGRGFPTPNESSLRTGLTPGGGGSMFPAPSPNSQAILQQLQSGGATPSTIEFHRTALSAAKKNGLSGPTSNPTADSEGVHSSSMDIKSSQPASVDPFTHHDAADAANGLFMLAKGGQANQFVSNQSSVPPHTIQGNNQSRDADRRGSQNVNGPVASSREMSGDASDMQTEQAKPSAKGKGKKNTASKSGTTANNRRKADDTPAKGPNKKAKTSVSSGSAEPPSEAGDSEDEDDMKKKSQTDTKKMTDEEKRRNFLERNRVAALKCRQRKKQWLANLQAKVELFTTENDALTATVTQLREEIVNLKTLLLAHKDCPVSQAQGLGSLMMNGMSTGFDPHPYNIANNMGMQPGAPIPTQGMRR	–	–	–	binds
